# No constants are given. Whether binding was seen depends on the method and setting. Binding seen in cells or lysates may run through a third protein.
# By UniProt entry, the sequences of proteins in these tests, tags left out.
# UniProt Q12840: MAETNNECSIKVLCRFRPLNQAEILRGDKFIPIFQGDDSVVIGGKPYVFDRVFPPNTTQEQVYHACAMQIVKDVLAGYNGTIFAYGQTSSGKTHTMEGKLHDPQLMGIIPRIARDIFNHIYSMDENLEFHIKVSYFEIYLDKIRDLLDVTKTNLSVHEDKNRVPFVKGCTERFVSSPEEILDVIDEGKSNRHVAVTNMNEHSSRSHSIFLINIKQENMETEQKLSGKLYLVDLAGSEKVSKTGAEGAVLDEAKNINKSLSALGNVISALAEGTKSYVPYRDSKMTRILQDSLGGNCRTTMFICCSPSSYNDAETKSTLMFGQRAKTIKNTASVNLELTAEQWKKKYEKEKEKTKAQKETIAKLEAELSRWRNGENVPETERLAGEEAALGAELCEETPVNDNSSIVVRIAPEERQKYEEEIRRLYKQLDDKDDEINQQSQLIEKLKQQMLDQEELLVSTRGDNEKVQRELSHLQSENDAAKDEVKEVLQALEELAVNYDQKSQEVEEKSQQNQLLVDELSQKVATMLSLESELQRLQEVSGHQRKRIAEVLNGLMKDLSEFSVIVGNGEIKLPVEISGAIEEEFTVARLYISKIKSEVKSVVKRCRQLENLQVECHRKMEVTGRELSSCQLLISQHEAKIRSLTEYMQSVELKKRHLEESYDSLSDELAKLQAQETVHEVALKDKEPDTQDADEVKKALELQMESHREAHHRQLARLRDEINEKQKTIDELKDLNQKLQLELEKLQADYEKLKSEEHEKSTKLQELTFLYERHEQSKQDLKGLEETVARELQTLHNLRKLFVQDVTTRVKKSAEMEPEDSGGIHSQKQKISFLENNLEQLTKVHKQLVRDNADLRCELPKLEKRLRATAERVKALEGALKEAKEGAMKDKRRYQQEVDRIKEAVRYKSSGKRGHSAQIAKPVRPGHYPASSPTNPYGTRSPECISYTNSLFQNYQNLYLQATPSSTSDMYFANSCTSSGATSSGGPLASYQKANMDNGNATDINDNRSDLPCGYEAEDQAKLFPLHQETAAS
# Molecular target: FLAG-KIF5A WT (human kinesin family member 5A, full length wild type) (human) (UniProt Q12840)
# Test: co-IP
substance,measurement,value
p62 (from UniProt Q13501 1-440),binding,no binding

# — doi:10.1101/2022.03.05.483071
